In publication PMC5079575:
Results are given in words; binding and its absence hold for the method and conditions named. In cells and extracts the contact can be indirect. Some entries that bind do so weakly or less than the wild type.

Sequences of proteins named here, by UniProt entry; tags and fusion partners are left off.
UniProt P09695: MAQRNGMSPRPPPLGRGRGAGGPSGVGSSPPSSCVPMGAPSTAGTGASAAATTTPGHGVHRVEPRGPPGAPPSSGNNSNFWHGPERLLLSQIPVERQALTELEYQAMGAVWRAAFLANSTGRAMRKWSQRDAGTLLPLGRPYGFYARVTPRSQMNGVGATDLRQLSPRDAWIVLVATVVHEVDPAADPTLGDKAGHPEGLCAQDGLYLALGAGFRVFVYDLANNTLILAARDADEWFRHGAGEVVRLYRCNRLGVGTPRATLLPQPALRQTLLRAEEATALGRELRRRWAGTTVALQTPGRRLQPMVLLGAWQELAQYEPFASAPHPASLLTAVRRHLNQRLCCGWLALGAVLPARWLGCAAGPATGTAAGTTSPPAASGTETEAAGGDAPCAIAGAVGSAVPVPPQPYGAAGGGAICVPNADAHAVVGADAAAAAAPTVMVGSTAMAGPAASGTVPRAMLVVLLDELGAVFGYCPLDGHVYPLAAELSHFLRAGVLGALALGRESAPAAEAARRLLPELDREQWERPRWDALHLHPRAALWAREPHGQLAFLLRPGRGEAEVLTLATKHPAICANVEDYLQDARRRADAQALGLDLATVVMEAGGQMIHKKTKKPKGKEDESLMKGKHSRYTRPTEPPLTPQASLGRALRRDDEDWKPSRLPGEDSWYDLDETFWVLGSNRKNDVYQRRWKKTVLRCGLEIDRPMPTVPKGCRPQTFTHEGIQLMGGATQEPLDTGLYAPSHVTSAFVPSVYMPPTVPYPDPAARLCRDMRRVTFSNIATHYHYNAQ
UniProt P19525: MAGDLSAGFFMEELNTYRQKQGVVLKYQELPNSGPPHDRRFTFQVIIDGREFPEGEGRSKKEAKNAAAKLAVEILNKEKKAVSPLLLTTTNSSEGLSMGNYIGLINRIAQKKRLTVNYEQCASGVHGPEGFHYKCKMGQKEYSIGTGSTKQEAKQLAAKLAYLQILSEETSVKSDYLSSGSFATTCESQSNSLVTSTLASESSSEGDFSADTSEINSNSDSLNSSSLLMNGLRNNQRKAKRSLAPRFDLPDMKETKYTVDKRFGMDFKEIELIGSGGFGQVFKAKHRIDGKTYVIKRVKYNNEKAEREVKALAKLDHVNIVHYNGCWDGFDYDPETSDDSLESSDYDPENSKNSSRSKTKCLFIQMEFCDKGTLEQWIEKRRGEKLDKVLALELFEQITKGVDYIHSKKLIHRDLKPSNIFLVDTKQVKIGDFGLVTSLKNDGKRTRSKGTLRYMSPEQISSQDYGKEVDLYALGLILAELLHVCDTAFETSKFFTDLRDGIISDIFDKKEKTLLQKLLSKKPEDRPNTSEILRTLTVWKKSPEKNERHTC

Biological target: human cytomegalovirus TRS1 (HCMV_(TRS1)), His-tagged (human cytomegalovirus (HCMV)) (UniProt P09695)
Assay: pull-down; HeLa PKR KO cells co-transfected with untagged PKR and His-tagged TRS1; lysates (50mM NaH2PO4, 300mM NaCl, 10mM imidazole, 0.75% Tween 20) incubated with NiNTA agarose 2 hours at 4°C, washed 3x with 20mM imidazole; western blot with anti-PKR and anti-His

In the case of “human protein kinase R (HuPKR), wild type (from UniProt P19525 1-551) (enzyme)”, the binding is reported as “binds”.
